According to publication PMC2746283, “BtubA-BtubB Heterodimer Is an Essential Intermediate in Protofilament Assembly” (PLoS ONE, 2009):
No constants are given. Whether binding was seen depends on the method and setting.

B1: BtubA, wild type (natural protein, P. dejongeii)
chain: MKVNNTIVVSIGQAGNQIAASFWKTVCLEHGIDPLTGQTAPGVAPRGNWSSFFSKLGESSSGSYVPRAIMVDLEPSVIDNVKATSGSLFNPANLISRTEGAGGNFAVGYLGAGREVLPEVMSRLDYEIDKCDNVGGIIVLHAIGGGTGSGFGALLIESLKEKYGEIPVLSCAVLPSPQVSSVVTEPYNTVFALNTLRRSADACLIFDNEALFDLAHRKWNIESPTVDDLNLLITEALAGITASMRFSGFLTVEITLRELLTNLVPQPSLHFLMCAFAPLTPPDRSKFEELGIEEMIKSLFDNGSVFAACSPMEGRFLSTAVLYRGIMEDKPLADAALAAMREKLPLTYWIPTAFKIGYVEQPGISHRKSMVLLANNTEIARVLDRICHNFDKLWQRKAFANWYLNEGMSEEQINVLRASAQELVQSYQVAEESGAKAKVQDSAGDTGMRAAAAGVSDDARGSMSLRDLVDRRR
B2: BtubB, wild type (natural protein)
chain: VREILSIHVGQCGNQIADSFWRLALREHGLTEAGTLKEGSNAAANSNMEVFFHKVRDGKYVPRAVLVDLEPGVIARIEGGDMSQLFDESSIVRKIPGAANNWARGYNVEGEKVIDQIMNVIDSAVEKTKGLQGFLMTHSIGGGSGSGLGSLILERLRQAYPKKRIFTFSVVPSPLISDSAVEPYNAILTLQRILDNADGAVLLDNEALFRIAKAKLNRSPNYMDLNNIIALIVSSVTASLRFPGKLNTDLSEFVTNLVPFPGNHFLTASFAPMRGAGQEGQVRTNFPDLARETFAQDNFTAAIDWQQGVYLAASALFRGDVKAKDVDENMATIRKSLNYASYMPASGGLKLGYAETAPEGFASSGLALVNHTGIAAVFERLIAQFDIMFDNHAYTHWYENAGVSRDMMAKARNQIATLAQSYRDAS
notes: BtubB, bacterial tubulin-like protein of Prosthecobacter; the species is printed only for BtubA (P. dejongeii); also called B-wt; BtubB WT; source: E. coli, purified as described previously [3], with an added Sephacryl HR-100 column step; not shown: His tag, N-terminal, kept

Experiments:
BtubA, wild type = biological target: B1; test: AUC; sedimentation equilibrium of BtubA alone or BtubB alone, no GTP, HMK buffer; both purified
[1] = biological target: BtubB, wild type (Prosthecobacter (species not stated for BtubB)) (UniProt Q8GCC1); test: as above

Binder: B1
- binding (BtubA, wild type): no binding

Binder: B2
- binding [1]: no binding
